Like-named read-outs stand apart in the source and are kept apart here. No constants are given. Whether binding was seen depends on the method and setting. Binding seen in cells or lysates may run through a third protein. Here binding means that the protein was enriched with, or labelled near, the bait; the list need not be complete. For some assays here: A no says only that the protein was not detected with the bait. Sequences can lack the tags named with a protein.
B1: SAG101-3FLAG (Senescence-Associated Gene 101) (protein, UniProt Q4F883 28-537)
chain: KILEIHNPPYSNHDPGLQVSKKKKDSGLEFQIHREEKFTLVVFSAPPICRSSSSDSTLLHVKDKENPFPFLCSENNPSFSLHTPAFNLFTSASTSLTYLKSELLQTLKSEKPVIITGAALGGSVASLYTLWLLETIEPTLKRPLCITFGSPLIGDASLQQILENSVRNSCFLHVVSAQTRIKMDFFKPFGTFLICFDSGCVCIEDHVAVTELLNGVHDSGLVDYSQVLNRLDQSMLSLADSRLIPEDVIKGIEKRAEMKNLRFDMMFKKLNDMKISMAYIEWYKKKCKEVKIGYYDRFKTQLAFPSKEFDINIKNHHKSELNRFWKSVVEEVERRPQSDASILKRRFLFSGNNYRRMIEPLDIAEYYLEGRKEYRTTGRSHHYVMLEKWFGMESILIEKERCKKRDLSDLLTFDSCFWAEVEDSLIVINQLNTTVGMRDDVREVLTRKLVEFEGYVWEIITKREVSPEIFLEESSFMKWWKEYKKIKGFNSSYLTEFMNTRKYESYGKSQ
B2: EDS1-ZZ-TEV-FLAG (protein, UniProt Q9SU72 1-623)
chain: MAFEALTGINGDLITRSWSASKQAYLTERYHKEEAGAVVIFAFQPSFSEKDFFDPDNKSSFGEIKLNRVQFPCMRKIGKGDVATVNEAFLKNLEAIIDPRTSFQASVEMAVRSRKQIVFTGHSSGGATAILATVWYLEKYFIRNPNVYLEPRCVTFGAPLVGDSIFSHALGREKWSRFFVNFVSRFDIVPRIMLARKASVEETLPHVLAQLDPRKSSVQESEQRITEFYTRVMRDTSTVANQAVCELTGSAEAFLETLSSFLELSPYRPAGTFVFSTEKRLVAVNNSDAILQMLFYTSQASDEQEWSLIPFRSIRDHHSYEELVQSMGKKLFNHLDGENSIESTLNDLGVSTRGRQYVQAALEEEKKRVENQKKIIQVIEQERFLKKLAWIEDEYKPKCQAHKNGYYDSFKVSNEENDFKANVKRAELAGVFDEVLGLMKKCQLPDEFEGDIDWIKLATRYRRLVEPLDIANYHRHLKNEDTGPYMKRGRPTRYIYAQRGYEHYILKPNGMIAEDVFWNKVNGLNLGLQLEEIQETLKNSGSECGSCFWAEVEELKGKPYEEVEVRVKTLEGMLGEWITDGEVDDKEIFLEGSTFRKWWITLPKNHKSHSPLRDYMMDEITDT
B3: PAD4-3FLAG (protein, UniProt Q9S745 1-541)
chain: MDDCRFETSELQASVMISTPLFTDSWSSCNTANCNGSIKIHDIAGITYVAIPAVSMIQLGNLVGLPVTGDVLFPGLSSDEPLPMVDAAILKLFLQLKIKEGLELELLGKKLVVITGHSTGGALAAFTALWLLSQSSPPSFRVFCITFGSPLLGNQSLSTSISRSRLAHNFCHVVSIHDLVPRSSNEQFWPFGTYLFCSDKGGVCLDNAGSVRLMFNILNTTATQNTEEHQRYGHYVFTLSHMFLKSRSFLGGSIPDNSYQAGVALAVEALGFSNDDTSGVLVKECIETATRIVRAPILRSAELANELASVLPARLEIQWYKDRCDASEEQLGYYDFFKRYSLKRDFKVNMSRIRLAKFWDTVIKMVETNELPFDFHLGKKWIYASQFYQLLAEPLDIANFYKNRDIKTGGHYLEGNRPKRYEVIDKWQKGVKVPEECVRSRYASTTQDTCFWAKLEQAKEWLDEARKESSDPQRRSLLREKIVPFESYANTLVTKKEVSLDVKAKNSSYSVWEANLKEFKCKMGYENEIEMVVDESDAMET
B4: PAD4-ZZ-TEV-FLAG (protein, UniProt Q9S745 1-541)
chain: B3 chain

What was measured:
Experiment in all cases: proximity labelling
[1] = target: ADR1-L1-HA-TurboID (A. thaliana)
[2] = target: ADR1-L1-HA-TurboID (A. thaliana); remark: listed apart in the source
[3] = target: HA-TurboID-ADR1(1C) (NRG1C-type N-terminally truncated ADR1) (A. thaliana)
[4] = target: ADR1-L1-HA-TurboID (A. thaliana); remark: listed apart in the source

Binder | binding [1] | binding [2] | binding [3] | binding [4]
B1 | no binding | – | – | –
B2 | binds | binds weakly | binds | binds
B3 | – | – | binds | –
B4 | – | binds weakly | – | binds

— article doi:10.1101/2021.05.23.445317
